Here are results for 28 sequences from the supplement of paper PMC9233669.

This sample is rich in variants without activity.

One series concerns biotinyl-Trp-oxazolone. Nature of the series: self-aminoacylation, catalytic enhancement (BWO) (fold over background); higher = more active; k-Seq, kA / k0A0; sequences stand for … in GGGAAUGGAUCCACAUCUACGAAUUC…UUCACUGCAGACUUGACGAAGCUG
The method in brief:
(§1)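 Mutagenized RNA pools (0.43 μM; 21-nt variable region) were treated with 2–1250 μM of each biotinyl-aminoacyl-oxazolone. Conditions were 50 μL HEPES/NaCl/KCl/MgCl2/CaCl2 buffer, 5% acetonitrile, pH 6.9–7.0, room temperature, 90 minutes. Catalytic enhancement, the median kA relative to the uncatalyzed rate, was derived from streptavidin capture, qPCR and Illumina sequencing.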

The next series relates to biotinyl-Leu-oxazolone. The series is described as follows: self-aminoacylation, catalytic enhancement (BLO) (fold over background); higher = more active; k-Seq, kA / k0A0; sequences stand for … in GGGAAUGGAUCCACAUCUACGAAUUC…UUCACUGCAGACUUGACGAAGCUG
The method, boiled down:
as §1

Another series has as its system biotinyl-Val-oxazolone. The series is described as follows: self-aminoacylation, catalytic enhancement (BVO) (fold over background); higher = more active; k-Seq, kA / k0A0; sequences stand for … in GGGAAUGGAUCCACAUCUACGAAUUC…UUCACUGCAGACUUGACGAAGCUG
The method, boiled down: as §1

For a further series, the system named is biotinyl-Ile-oxazolone. Nature of the series: self-aminoacylation, catalytic enhancement (BIO) (fold over background); higher = more active; k-Seq, kA / k0A0; sequences stand for … in GGGAAUGGAUCCACAUCUACGAAUUC…UUCACUGCAGACUUGACGAAGCUG
The method in brief: as §1

A further series relates to biotinyl-Met-oxazolone. Nature of the series: self-aminoacylation, catalytic enhancement (BMO) (fold over background); higher = more active; k-Seq, kA / k0A0; sequences stand for … in GGGAAUGGAUCCACAUCUACGAAUUC…UUCACUGCAGACUUGACGAAGCUG
The method in brief:
as §1

A further series concerns biotinyl-Phe-oxazolone. The series is described as follows: self-aminoacylation, catalytic enhancement (BFO) (fold over background); higher = more active; k-Seq, kA / k0A0; sequences stand for … in GGGAAUGGAUCCACAUCUACGAAUUC…UUCACUGCAGACUUGACGAAGCUG
The method, boiled down:
as §1

For “CUACUUCUAACAAUCGGUCUA [Fam1A.1 aminoacylation ribozyme variant]”, the self-aminoacylation in the series on biotinyl-Trp-oxazolone amounted to 0.461; in the series on biotinyl-Leu-oxazolone, 0.692; in the series on biotinyl-Val-oxazolone, 0.752; with biotinyl-Ile-oxazolone it was 0.732; with biotinyl-Met-oxazolone, 0.725; in the series on biotinyl-Phe-oxazolone, 0.937.
“CCAUACUUCAAGCCAUCGGUC [Fam1B.1 aminoacylation ribozyme variant]”: the self-aminoacylation with biotinyl-Trp-oxazolone came to 0.849; with biotinyl-Leu-oxazolone it was 0.937; in the series on biotinyl-Val-oxazolone, 1.09; in the series on biotinyl-Ile-oxazolone, 1.06; in the series with biotinyl-Met-oxazolone, 0.971; with biotinyl-Phe-oxazolone it was 0.652.
For “AUUCACCUAGGUCUUCGGGUG [Fam2.2 aminoacylation ribozyme variant]”, the self-aminoacylation in the series on biotinyl-Trp-oxazolone amounted to 4.38; with biotinyl-Leu-oxazolone, 5.48; in the series with biotinyl-Val-oxazolone it was 3.71; in the series with biotinyl-Ile-oxazolone, 3.33; with biotinyl-Met-oxazolone, 4.46; with biotinyl-Phe-oxazolone, 27.4.
As for “AUUACCCAGGCCAUCGAGUGA [Fam2.1 aminoacylation ribozyme variant]”, the self-aminoacylation with biotinyl-Trp-oxazolone is 1.61; in the series with biotinyl-Leu-oxazolone, 2.69; in the series on biotinyl-Val-oxazolone, 1.92; with biotinyl-Ile-oxazolone, 1.85; in the series on biotinyl-Met-oxazolone, 2.52; with biotinyl-Phe-oxazolone, 11.
With “CCAAACUUCAGGCAAUCGGUC [Fam1B.1 aminoacylation ribozyme variant]”, the self-aminoacylation with biotinyl-Trp-oxazolone was found to be 1.65; in the series on biotinyl-Leu-oxazolone it was 1.24; in the series on biotinyl-Val-oxazolone, 1.75; in the series on biotinyl-Ile-oxazolone it was 1.46; with biotinyl-Met-oxazolone, 1.53; with biotinyl-Phe-oxazolone it was 1.03.
Take “CAACUUCAAACGAUCGGUCUG [Fam1A.1 aminoacylation ribozyme variant]”: the self-aminoacylation in the series with biotinyl-Trp-oxazolone was 2.65; in the series on biotinyl-Leu-oxazolone it was 0.99; in the series with biotinyl-Val-oxazolone, 1.25; in the series on biotinyl-Ile-oxazolone it was 1.13; in the series with biotinyl-Met-oxazolone, 0.881; with biotinyl-Phe-oxazolone, 2.25.
Turning to “ACGUUUGCUAAUAGUCCCAAG [Fam3.1 aminoacylation ribozyme variant]”, the self-aminoacylation in the series with biotinyl-Trp-oxazolone was 1.4; with biotinyl-Leu-oxazolone it was 0.928; in the series on biotinyl-Val-oxazolone it was 0.859; in the series with biotinyl-Ile-oxazolone, 1.05; with biotinyl-Met-oxazolone, 1.31; in the series with biotinyl-Phe-oxazolone, 2.
On to “AAGUUAGGUAAUAGUCGCAAG [Fam3.1 aminoacylation ribozyme variant]”, for which the self-aminoacylation in the series on biotinyl-Leu-oxazolone turned out to be 1.28; in the series on biotinyl-Val-oxazolone it was 1.26; in the series on biotinyl-Ile-oxazolone it was 1.49; in the series on biotinyl-Met-oxazolone, 1.38; in the series with biotinyl-Phe-oxazolone, 1.47.
Take “CCUCACUUCAAGCAAUCGGGC [Fam1B.1 aminoacylation ribozyme variant]”: the self-aminoacylation was determined as 1.59 in the series on biotinyl-Val-oxazolone, 1.59 with biotinyl-Ile-oxazolone, 1.81 with biotinyl-Met-oxazolone and 1.33 with biotinyl-Phe-oxazolone.
For “CGACACUUCAAGCAAUCGGUU [Fam1B.1 aminoacylation ribozyme variant]”, the self-aminoacylation in the series on biotinyl-Leu-oxazolone was found to be 1.32; in the series with biotinyl-Val-oxazolone, 1.79; with biotinyl-Ile-oxazolone it was 1.9; in the series with biotinyl-Met-oxazolone, 1.11; with biotinyl-Phe-oxazolone it was 1.81.
Turning to “AUUCACCUAGGUCACCGGGUC [Fam2.2 aminoacylation ribozyme variant]”, the self-aminoacylation with biotinyl-Trp-oxazolone is 1.28; with biotinyl-Leu-oxazolone it was 1.01; in the series with biotinyl-Ile-oxazolone it was 1.62; in the series on biotinyl-Met-oxazolone it was 1.91; in the series on biotinyl-Phe-oxazolone, 1.59.
For “CCACACUUCAAGAAAUCGGUU [Fam1B.1 aminoacylation ribozyme variant]”, the self-aminoacylation came out at 1.17 in the series on biotinyl-Leu-oxazolone; 1.11 in the series on biotinyl-Val-oxazolone; 1.16 in the series with biotinyl-Ile-oxazolone; 1.13 in the series with biotinyl-Met-oxazolone; 1.82 with biotinyl-Phe-oxazolone.
Take “CCAGACUUCAAGCAAUCGGGC [Fam1B.1 aminoacylation ribozyme variant]”: the self-aminoacylation was 1.98 in the series with biotinyl-Met-oxazolone and 1.53 with biotinyl-Phe-oxazolone.
With “CCACACUUCACGCAAUCGCUC [Fam1B.1 aminoacylation ribozyme variant]”, the self-aminoacylation stood at 1.35 in the series on biotinyl-Trp-oxazolone; 1.42 with biotinyl-Leu-oxazolone; 1.14 in the series with biotinyl-Ile-oxazolone; 1.37 in the series on biotinyl-Met-oxazolone; 1.78 in the series with biotinyl-Phe-oxazolone.
As for “AAUUUUGCUAAUAGUCGCUAG [Fam3.1 aminoacylation ribozyme variant]”, the self-aminoacylation in the series with biotinyl-Leu-oxazolone is 1.48; with biotinyl-Val-oxazolone, 1.49; in the series on biotinyl-Ile-oxazolone it was 1.37; in the series on biotinyl-Met-oxazolone, 1.59; with biotinyl-Phe-oxazolone it was 1.98.
In the case of “CCACAAUUCAAGCAAUCGGGC [Fam1B.1 aminoacylation ribozyme variant]”, the self-aminoacylation with biotinyl-Leu-oxazolone came to 1.44; in the series with biotinyl-Val-oxazolone, 1.97; with biotinyl-Phe-oxazolone, 1.27.
Take “AAAUUUGCUAAUUGUCGCAAG [Fam3.1 aminoacylation ribozyme variant]”: the self-aminoacylation with biotinyl-Trp-oxazolone stood at 1.94; in the series on biotinyl-Leu-oxazolone, 1.44; with biotinyl-Val-oxazolone it was 1.78; with biotinyl-Ile-oxazolone it was 1.67; in the series with biotinyl-Phe-oxazolone, 1.59.
“AUUACCCGGGUCAUCGAGUUA [Fam2.1 aminoacylation ribozyme variant]”: the self-aminoacylation in the series on biotinyl-Leu-oxazolone came to 1.3; with biotinyl-Val-oxazolone it was 1.58; with biotinyl-Ile-oxazolone, 1.52; in the series with biotinyl-Met-oxazolone, 1.45; in the series with biotinyl-Phe-oxazolone, 1.22.
With “AUCACCCUGGUCAUCGAGCGA [Fam2.1 aminoacylation ribozyme variant]”, in the series with biotinyl-Phe-oxazolone, the self-aminoacylation was determined as 1.06.
Take “AUUACCCUGGUCAUGGAGUGG [Fam2.1 aminoacylation ribozyme variant]”: the self-aminoacylation in the series with biotinyl-Leu-oxazolone came to 1.93; with biotinyl-Val-oxazolone, 1.27; with biotinyl-Ile-oxazolone it was 1.29; in the series on biotinyl-Met-oxazolone, 1.58; in the series with biotinyl-Phe-oxazolone, 0.877.
Regarding “CCAAACUUCAAGCAAUCGGGC [Fam1B.1 aminoacylation ribozyme variant]”, the figures for the self-aminoacylation in the series with biotinyl-Leu-oxazolone and in the series with biotinyl-Phe-oxazolone were 1.73 and 1.21, respectively.
For “AUUACCCUGGGCUUCGAGUGA [Fam2.1 aminoacylation ribozyme variant]”, the self-aminoacylation came to 1.99 in the series on biotinyl-Leu-oxazolone, 1.65 in the series on biotinyl-Val-oxazolone, 1.33 in the series on biotinyl-Ile-oxazolone and 1.66 in the series with biotinyl-Phe-oxazolone.
For the sequence “CUUCACCUAGGUCAUCGGGAG [Fam2.2 aminoacylation ribozyme variant]”, the self-aminoacylation in the series with biotinyl-Leu-oxazolone came out at 1.52; in the series on biotinyl-Val-oxazolone, 1.47; in the series on biotinyl-Ile-oxazolone, 1.66; with biotinyl-Met-oxazolone, 1.57; in the series on biotinyl-Phe-oxazolone, 0.981.
“CCACACUUCAGCCAAUCGGUC [Fam1B.1 aminoacylation ribozyme variant]”: the self-aminoacylation with biotinyl-Val-oxazolone was 1.92; in the series on biotinyl-Ile-oxazolone it was 1.86; in the series with biotinyl-Met-oxazolone it was 1.25; with biotinyl-Phe-oxazolone, 1.08.
On to “CUACUUCAAACAUUCGGGCUG [Fam1A.1 aminoacylation ribozyme variant]”, for which the self-aminoacylation in the series on biotinyl-Trp-oxazolone was found to be 1.65; in the series with biotinyl-Leu-oxazolone, 1.81; in the series on biotinyl-Phe-oxazolone it was 1.65.
For “CGACACUUCAAGCAAUCGGUG [Fam1B.1 aminoacylation ribozyme variant]”, the self-aminoacylation in the series with biotinyl-Trp-oxazolone is 1.71; with biotinyl-Phe-oxazolone it was 1.81.
On to “AUUCACCAAGGUCAUCGUGUG [Fam2.2 aminoacylation ribozyme variant]”, for which the self-aminoacylation in the series with biotinyl-Trp-oxazolone is 1.12; with biotinyl-Leu-oxazolone it was 1.29; with biotinyl-Val-oxazolone, 1.1; in the series with biotinyl-Ile-oxazolone, 1.05; in the series on biotinyl-Met-oxazolone it was 1.29.
Consider “CUGCUUCAAACAAUCCGUCUG [Fam1A.1 aminoacylation ribozyme variant]”, for which the self-aminoacylation in the series on biotinyl-Trp-oxazolone came to 1.89; with biotinyl-Leu-oxazolone it was 0.819; in the series with biotinyl-Val-oxazolone, 0.891; in the series on biotinyl-Ile-oxazolone, 0.844; with biotinyl-Met-oxazolone it was 0.756.
